PubChem BioAssay AID1259425, University of Nebraska Medical Center – 2018
Screen: 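Seek colon cancer weak points whose silencing resembles KSR1 loss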 (primary screen). Cells: HCT116 human colon cancer cells. Reagent: siRNA pool against human genes, 50 nM siRNA. Detection: 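mRNA of six signature genes measured together by branched-DNA assay after 50 nM siRNA pool, blank removed, divided by geometric mean of two housekeeping genes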. Reading the numbers: BNIP3L mRNA: higher = more BNIP3L transcript after knockdown; NDRG1 mRNA: higher = more NDRG1 transcript after knockdown.
This is an unselected part of about 14,000 reagents. Not all columns of the deposit are shown. Reagent sequences are not shown. Not stated in the record: the time to read-out.

no.	gene	BNIP3L mRNA, set 1	NDRG1 mRNA, set 1
1	TRIB2	0.104	0.426
2	CASKIN1	0.115	0.121
3	USP39	0.117	0.46
4	LEFTY1	0.104	0.235
5	KLKB1	0.114	0.116
6	MFAP1	0.133	0.735
7	OPHN1	0.0769	0.0619
8	ERAS	0.0995	0.19
9	DLL4	0.0613	0.11
10	TTLL1	0.203	0.367
11	NDUFB10	0.151	0.288
12	STRN4	0.176	0.372
13	LIMK1	0.0655	0.213
14	CDH26	0.0594	0.137
15	WSB2	0.0703	0.116
16	KCTD3	0.158	0.107
17	HIF1A	0.0689	0.0583
18	SHCBP1	0.146	0.225
19	BIN3	0.116	0.443
20	MESP1	0.0908	0.259
21	CTDSPL2	0.107	0.144
22	CCNL1	0.228	0.196
23	CDYL	0.0935	0.426
24	SERPINB8	0.0993	0.0521
25	ATP5PB	0.0988	0.214
26	GJD2	0.108	0.152
27	RORC	0.1	0.0805
28	HYDIN	1.97	8.17
29	PIN1P1	0.103	0.284
30	NBN	0.0754	0.127
31	NR2E3	0.0734	0.268
32	HCN1	0.119	0.227
33	PTGER1	0.259	0.214
34	CCDC70	0.0875	0.0545
35	TSPAN6	0.189	0.129
36	MYEOV	0.175	0.686
37	KLHL41	0.11	0.168
38	JADE3	0.102	0.597
39	TMEM121	0.0812	0.179
40	CBX6	0.111	0.169
41	LILRB5	0.064	0.114
42	NAA25	0.166	0.466
43	ISOC1	0.109	0.106
44	TMEM208	0.0971	0.405
45	SMG6	0.0655	0.348
46	H3C3	0.0825	0.257
47	NRIP3	0.145	0.0932
48	H4C14	0.0246	0.0401
49	PDCL3	0.0679	0.465
50	NSF	0.159	0.218
51	NDUFB8	0.105	0.365
52	ATXN8OS	0.0687	0.0536
53	KAT6A	0.0665	0.0929
54	RGP1	0.218	0.157
55	SERPINB9	0.115	0.137
56	ZNF646	0.0858	0.26
57	CLIP4	0.123	0.17
58	CRAT	0.135	0.144
59	ZNF624	0.119	0.256
60	TTK	0.135	0.97
61	B3GALT4	0.0942	0.591
62	CD300E	0.0502	0.15
63	PREP	0.0925	0.344

Laid out differently: 4 of the entries above.
gene	BNIP3L mRNA, set 1	NDRG1 mRNA, set 1
USP39	0.117	0.46
LEFTY1	0.104	0.235
KLKB1	0.114	0.116
MFAP1	0.133	0.735
